From US9605266
For some of these results: Where cells or extracts were used, other partners may take part.

Assays:
[1] = target: C-C chemokine receptor type 5 (CCR5) (Homo sapiens) (UniProt P51681); assay: flow cytometry; conditions: 2'-F pyrimidines (2'-F-C, 2'-F-U), protein on the cell surface
[2] = target: C-C chemokine receptor type 5 (CCR5) (Homo sapiens) (UniProt P51681); assay: activity in cells; conditions: 2'-F pyrimidines in sense strand (transcribed); 400 nM, no transfection agent: TNPO3 knockdown in CEM-NKr-CCR5 but not in CCR5-negative CEM-NKr cells; protein on the cell surface; protein details: CEM-NKr-CCR5 cells; variant of G-3 aptamer
[3] = also qRT-PCR binding/internalization, no binding to CCR5-negative U373-Magi, protein details: U373-Magi-CCR5E cells, label: Cy3

Sequence: GGGAGGACGAUGCGGCCUUUCGUCUGUUUCUGCGCCAGACGACUCGCCCGA [G-6 aptamer]
- binding result [1, 3]: binds

Sequence: GGGAGGACGAUGCGGAUCGUCUAUUAGUCGCUGGCCAGACGACUCGCCCGA [G-1 aptamer]
- binding result [1, 3]: binds

Sequence: GGGAGGACGAUGCGGUCCCGGCUCGUUCGUCUGUGCAGACGACUCGCCCGA [G-4 aptamer]
- binding result [1, 3]: binds

Sequence: GGGAGGACGAUGCGGUCCUUGGCUUUUCGUCUGUGCAGACGACUCGCCCGA [G-2 aptamer]
- binding result [1, 3]: binds

Sequence: GGGAGGACGAUGCGGGCCUUCGUUUGUUUCGUCCACAGACGACUCGCCCGA [G-3 aptamer]
- binding result ([1]; binding to and internalization in PBMC-CD4+ cells, protein details: endogenous on primary PBMC-CD4+ cells, label: Cy3 (binding assays)): binds

Sequence: GGGAGGACGAUGCGGGCCUUCGUUUGUUUCGUCCACAGACGACUCGCCCGAUUUUUUUUCGACAUUGCAGCUCGUGUACCAGGC / GCCUGGUACACGAGCUGCAAUGUCGGC [G-3-TNPO3 27-mer Blunt chimera]
- functional effect of the aptamer [2]: active

Sequence: GGGAGGACGAUGCGGUUCGUCAUUUUUCGUCUGGGCAGACGACUCGCCCGA [G-5 aptamer]
- binding result [1, 3]: binds
